Laboratory results: paper PMC12040169 (PLOS Biology, 2025)
The other results are listed elsewhere or left out.

The compounds below were run on T1, CTL2-GFP (C. trachomatis L2/434/Bu, GFP-expressing). Conditions: bulk GFP, single well; 28.5 h, 10 µM; inhibitor.
T1 construct: L2/434/Bu, GFP-expressing
Parameters: species or system HeLa; Intracellular C. trachomatis growth in HeLa cells, bulk GFP fluorescence relative to DMSO

SMILES	% of control remaining
O=C1NC/C=C/CC2(CCN(Cc3ccccc3)CC2)C(=O)NCCOc2ccccc21 [CBK292097]	144.664%
c1ccc2[nH]c(SCCCCCSc3nc4ccccc4[nH]3)nc2c1 [CBK025418]	103.118%
c1ccc(-c2nc(C3CCCC3)n3ccccc23)cc1 [CBK149260]	122.677%
CCOC(=O)N1CCN(C(C(=O)O)c2c[nH]c3cc(OCc4ccccc4)ccc23)CC1 (centres unmarked) [CBK286689]	123.998%
COc1cccc2cc(C(=O)Nc3ccc4[nH]ccc4c3)oc12 [CBK149819]	115.329%
CCCN1CCN(c2ncnc3sc(C4COc5ccccc5O4)cc23)CC1 (centres unmarked) [CBK269396]	98.6124%
CCCC/C=C/c1cnc(N)c(N[C@@H](C)c2ccccc2)n1 [CBK063722]	121.036%
Cn1cnc(S(=O)(=O)N(c2ccc(C(C)(C)C)cc2)C2CCNCC2)c1 [CBK165046T]	119.194%
O=C(NC(CN1CCOCC1)c1ccccc1)c1cnc(-c2ccc(Cl)cc2)c(-c2ccncc2)c1 (centres unmarked) [CBK037604]	189.951%
CN(C)C(=O)[C@H]1CN2CCC1C[C@@H]2Cn1cc(CCO)nn1 (some centres unmarked) [CBK289089]	124.506%
O=C(O)c1ccccc1Nc1c2ccccc2nc2ccccc12 [CBK263921]	85.6663%
Cn1cccc1C(=O)NCc1ccc(OC2CCNCC2)cc1 [CBK036360T]	104.581%
CN1CCN(c2ccc(NS(=O)(=O)c3ccc(Cl)cc3)cc2)CC1 [CBK076932]	111.904%
Cc1ccc(CN(CCCn2ccnc2)Cc2ccccc2O)s1 [CBK283135]	98.648%
Cc1cnn(C2CCCN(C(=O)CC3OCCc4sccc43)C2)c1 (centres unmarked) [CBK305329]	120.035%
Cc1cc(NC(=O)C2CCCCC2)nc2c1c(=O)oc1ccccc12 [CBK291247]	132.381%
c1csc(-c2cn3ccnc3c(NC3CC3)n2)c1 [CBK066712]	157.136%
CN(C)Cc1cn([C@H]2CO[C@H]3[C@@H]2OC[C@@H]3NC(=O)NC2CCCCC2)nn1 [CBK289493]	132.356%
COC(=O)N1CCN(C(=O)c2cc(C(C)C)n3ncnc3n2)CC1 [CBK306509]	106.592%
CCc1nnc(SCC(=O)N2c3ccccc3Sc3ccccc32)[nH]1 [CBK268687]	122.908%
C=Cn1ncc(CN(Cc2ccc(C)o2)CC2CCCO2)c1C (centres unmarked) [CBK283292]	130.01%
CC(=O)Nc1cccc(-c2nccnc2NCC2CC2)c1 [CBK037962]	159.405%
COc1ccc(CN(C)c2c(C)nc3c(OCCCN(C)S(C)(=O)=O)cccn23)cc1 [CBK147468]	114.898%
Cc1ccc2nsnc2c1NC(=O)CN1CCCCC1 [CBK269330]	133.192%
N#C/C(=C\c1cn(-c2ccccc2)nc1-c1cccc(S(=O)(=O)N2CCCCCC2)c1)c1nc2ccccc2c(=O)[nH]1 [CBK266347]	92.7521%

Molecules above with a halogen:
SMILES	% of control remaining
O=C(NC(CN1CCOCC1)c1ccccc1)c1cnc(-c2ccc(Cl)cc2)c(-c2ccncc2)c1 (centres unmarked) [CBK037604]	189.951%
CN1CCN(c2ccc(NS(=O)(=O)c3ccc(Cl)cc3)cc2)CC1 [CBK076932]	111.904%

Further structures follow:

SMILES	% of control remaining
c1ccc(CCN2CCC(Oc3nccnc3OCc3cccnc3)CC2)nc1 [CBK083180]	107.689%
Cc1ccc(-c2noc(-c3cccnc3N3CCC(C(=O)O)CC3)n2)cc1 [CBK287260]	126.585%
COC(=O)c1ccccc1NC(=O)CN(c1cccc(Cl)c1Cl)S(C)(=O)=O [CBK264612]	98.3225%
Cc1ccc(C)c(S(=O)(=O)Nc2ccc(O)c(Sc3nc[nH]n3)c2)c1 [CBK266894]	137.254%
O=C(N/N=C/c1ccc(O)cc1)c1cc[n+](Cc2ccccc2)cc1 [CBK262047C]	112.796%
Cc1[nH]c(=O)[nH]c(=O)c1CCC(=O)OCc1nccn1Cc1ccccc1 [CBK297939]	142.677%
CC(C)(C)SCCOC(=O)C1CC(=O)N(Cc2ccccn2)C1 (centres unmarked) [CBK303991]	132.163%
O=C(CCCN1CCN(CCCC(=O)c2ccc(F)cc2)CC1)c1ccc(F)cc1 [CBK025317C]	100%
O=C(NC(c1ccccc1)c1ccsc1)C1CCN(C/C=C/c2ccccc2)CC1 (centres unmarked) [CBK148449]	110.536%
C/C(CCc1ccccc1)=N\NC(=O)c1ccc(CN2CCOCC2)cc1 [CBK262752]	97.953%
CN(Cc1cccc(Oc2ccccc2)c1)Cc1cccc2ccccc12 [CBK261857]	112.846%
CC(C)(CO)CNc1cncc(-c2cccs2)n1 [CBK065599]	101.458%
O=C1c2ccccc2CN1c1ccccc1 [CBK113189]	69.3499%
CN1C(=O)C(CC(=O)Nc2ccc(F)cc2)N(CCc2ccccc2)C1=S (centres unmarked) [CBK263861]	74.3712%
CC1CCN(CCN2CCn3c2nc2ccccc23)CC1 [CBK265467B]	128.019%
CC(C)[C@H](CO)Nc1cncc(-c2cccc3ccccc23)n1 [CBK065501]	123.969%
O=C(O)c1ccc(NC(=O)C2CCN(S(=O)(=O)c3ccccc3)CC2)cc1 [CBK265181]	106.284%
COc1ccccc1N1CCN(CC(O)COCc2ccc3c(c2)OCO3)CC1 (centres unmarked) [CBK278323C]	100%
O=C(c1cc(C(F)(F)F)cc(C(F)(F)F)c1)N1CCN(Cc2ccc3c(c2)OCO3)CC1 [CBK074756]	80.2783%
Cn1ccc(N2CCCC(NC(=O)c3scnc3C(C)(C)C)C2=O)n1 (centres unmarked) [CBK305453]	85.0327%
Cn1ccc2cc(NS(=O)(=O)c3ccc4[nH]c(=O)[nH]c(=O)c4c3)ccc21 [CBK286364]	83.09%
CC(=O)Nc1cccc(-c2cc(N3CCN(C(=O)c4ccco4)CC3)ncn2)c1 [CBK036959]	118.619%
O=C1c2ccccc2C(=O)c2c1cccc2S(=O)(=O)N1CCN(C(=O)C2CCCO2)CC1 (centres unmarked) [CBK200038]	21.5422%
CCOC(=O)c1ccc2ncc3c(=O)nc(N)sc3c2c1 [CBK291218]	122.282%
OCC[C@H]1CN2CCCC2CN1Cc1cccc(Cl)c1Cl (some centres unmarked) [CBK285429]	129.223%
